Assay results reported in US20050194561A1, “Anionic-sweetener-based ionic liquids and methods of use thereof” (University of South Alabama, priority 2004, published 2005).

System: {Rh}^+
Assay: Anion competition equilibrium for {Rh}+ (trans-Rh(PPh3)2(CO)X) in CDCl3 by 19F and/or 31P NMR
[1] = Z=TFA, eq. 1 (X=Sac) or eq. 2 (X=Ace)

SMILES | K, equilibrium {Rh}X + [N(PPh3)2]Z = {Rh}Z + [N(PPh3)2]X [1] | K, equilibrium {Rh}X + [N(PPh3)2]Z = {Rh}Z + [N(PPh3)2]X (Z=3-FC6H4CO2, eq. 1) | K, equilibrium {Rh}X + [N(PPh3)2]Z = {Rh}Z + [N(PPh3)2]X (Z=CH3CO2, eq. 1)
CC1=CC(=O)[N]([Rh](=[C]=O)([PH](c2ccccc2)(c2ccccc2)c2ccccc2)[PH](c2ccccc2)(c2ccccc2)c2ccccc2)S(=O)(=O)O1 [{Rh}Ace] | 1.1 |  | 
O=[C]=[Rh]([N]1C(=O)c2ccccc2S1(=O)=O)([PH](c1ccccc1)(c1ccccc1)c1ccccc1)[PH](c1ccccc1)(c1ccccc1)c1ccccc1 [{Rh}Sac] | 0.091 | 31 | 99
